US20100184652A1
No constants are given. Whether binding was seen depends on the method and setting. For some assays here: Binding seen in cells or lysates may run through a third protein. Some results given as binding are weak or reduced against the parent protein; the word gives no strength.

The chains behind the UniProt entries cited, without tags or fusion partners. Where a name states a change or a piece, a line headed by the entry shows the natural chain unless it says otherwise.
UniProt P00519: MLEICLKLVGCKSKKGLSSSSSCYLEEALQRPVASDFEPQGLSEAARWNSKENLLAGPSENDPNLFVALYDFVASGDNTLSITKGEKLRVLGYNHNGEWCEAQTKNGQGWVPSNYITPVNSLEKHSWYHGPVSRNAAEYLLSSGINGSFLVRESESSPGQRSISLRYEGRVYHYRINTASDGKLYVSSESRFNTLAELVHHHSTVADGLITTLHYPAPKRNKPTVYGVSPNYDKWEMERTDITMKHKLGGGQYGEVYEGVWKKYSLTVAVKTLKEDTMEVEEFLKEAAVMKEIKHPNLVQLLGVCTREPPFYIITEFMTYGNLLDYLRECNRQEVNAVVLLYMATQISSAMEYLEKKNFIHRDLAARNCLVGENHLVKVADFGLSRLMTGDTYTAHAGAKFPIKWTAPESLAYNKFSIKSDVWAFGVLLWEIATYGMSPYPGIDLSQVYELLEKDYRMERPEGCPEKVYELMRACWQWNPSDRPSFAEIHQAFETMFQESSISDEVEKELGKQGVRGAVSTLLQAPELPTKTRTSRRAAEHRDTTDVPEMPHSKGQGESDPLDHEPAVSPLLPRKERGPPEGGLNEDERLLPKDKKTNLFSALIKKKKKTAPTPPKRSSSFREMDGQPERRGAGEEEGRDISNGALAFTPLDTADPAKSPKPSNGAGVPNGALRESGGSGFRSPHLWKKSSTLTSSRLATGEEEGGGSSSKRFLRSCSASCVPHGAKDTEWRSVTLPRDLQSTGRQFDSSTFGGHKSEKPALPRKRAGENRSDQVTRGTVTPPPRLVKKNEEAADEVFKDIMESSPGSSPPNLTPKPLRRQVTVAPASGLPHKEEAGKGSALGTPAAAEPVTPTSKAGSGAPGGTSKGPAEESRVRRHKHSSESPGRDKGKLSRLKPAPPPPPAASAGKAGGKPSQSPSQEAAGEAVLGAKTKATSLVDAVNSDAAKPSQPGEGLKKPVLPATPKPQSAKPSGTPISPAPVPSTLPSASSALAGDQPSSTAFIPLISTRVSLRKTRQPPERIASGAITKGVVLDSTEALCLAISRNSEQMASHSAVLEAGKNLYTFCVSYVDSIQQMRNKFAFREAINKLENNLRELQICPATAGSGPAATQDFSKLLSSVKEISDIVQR
UniProt Q8IZP0: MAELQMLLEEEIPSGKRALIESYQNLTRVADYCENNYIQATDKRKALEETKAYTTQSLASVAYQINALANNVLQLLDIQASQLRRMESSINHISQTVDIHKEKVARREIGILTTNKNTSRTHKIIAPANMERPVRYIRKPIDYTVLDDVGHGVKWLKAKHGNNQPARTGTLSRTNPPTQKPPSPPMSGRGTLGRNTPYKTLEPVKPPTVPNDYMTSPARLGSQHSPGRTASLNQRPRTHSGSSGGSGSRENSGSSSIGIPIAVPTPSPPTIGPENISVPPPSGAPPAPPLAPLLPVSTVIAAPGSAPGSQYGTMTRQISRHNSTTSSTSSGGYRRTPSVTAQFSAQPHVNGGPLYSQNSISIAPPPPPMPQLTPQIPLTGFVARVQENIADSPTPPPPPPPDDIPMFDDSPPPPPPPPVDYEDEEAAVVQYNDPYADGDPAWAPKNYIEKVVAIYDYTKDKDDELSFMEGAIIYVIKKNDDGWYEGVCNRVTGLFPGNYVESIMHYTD

Experiments:
[1] = target: c-Abl kinase of LnCAP cells (UniProt P00519); assay: co-immunoprecipitation from LnCAP and Abi1(+) cell lysates, western blot
[2] = target: GST fusion polypeptide of Abi1 N1-187 (human) (UniProt Q8IZP0); assay: blot overlay of GST-Abi1 polypeptides with biotinylated GST-Abl-SH3

| binding [1] | binding [2] | Substance |
| --- | --- | --- |
| binds |  | Abi1 (Abi1/Hssh3bp1, isoform 2), wild type, untagged (from UniProt Q8IZP0 1-508) |
|  | binds | biotinylated GST-Abl-SH3 domain (from UniProt P00519 80-140) |
